Results are given in words; binding and its absence hold for the method and conditions named. Some entries that bind do so weakly or less than the wild type.
Target: human E-cadherin extracellular domain (human) (UniProt P12830)
Assay: flow cell adhesion assay; glass capillaries coated with human E-cadherin extracellular domain; 4T1 cells (parental, shP120, WT or S/T6A p120-catenin re-expressed) dissociated with 0.2 mM EDTA, attached 10 min in HBSS, then washed at increasing flow rates in 30 s increments; percent of cells still attached counted; only the target purified

Sequences of proteins named here, by UniProt entry; tags and fusion partners are left off. Residues count along the entry.
UniProt P12830, residues 155-709: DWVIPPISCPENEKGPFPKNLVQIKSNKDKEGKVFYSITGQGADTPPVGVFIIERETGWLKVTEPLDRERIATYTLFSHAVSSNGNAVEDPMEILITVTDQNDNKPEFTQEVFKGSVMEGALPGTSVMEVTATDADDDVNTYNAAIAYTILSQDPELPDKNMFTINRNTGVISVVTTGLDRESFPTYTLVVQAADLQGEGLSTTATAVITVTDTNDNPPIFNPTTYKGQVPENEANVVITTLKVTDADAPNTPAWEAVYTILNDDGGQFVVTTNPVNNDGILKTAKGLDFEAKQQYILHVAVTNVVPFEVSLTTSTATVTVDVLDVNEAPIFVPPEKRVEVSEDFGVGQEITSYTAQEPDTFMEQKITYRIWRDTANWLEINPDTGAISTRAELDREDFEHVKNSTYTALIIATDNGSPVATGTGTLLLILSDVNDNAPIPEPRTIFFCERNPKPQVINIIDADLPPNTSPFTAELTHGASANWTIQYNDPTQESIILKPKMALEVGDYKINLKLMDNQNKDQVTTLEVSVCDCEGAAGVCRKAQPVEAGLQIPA
UniProt P09803, residues 157-884: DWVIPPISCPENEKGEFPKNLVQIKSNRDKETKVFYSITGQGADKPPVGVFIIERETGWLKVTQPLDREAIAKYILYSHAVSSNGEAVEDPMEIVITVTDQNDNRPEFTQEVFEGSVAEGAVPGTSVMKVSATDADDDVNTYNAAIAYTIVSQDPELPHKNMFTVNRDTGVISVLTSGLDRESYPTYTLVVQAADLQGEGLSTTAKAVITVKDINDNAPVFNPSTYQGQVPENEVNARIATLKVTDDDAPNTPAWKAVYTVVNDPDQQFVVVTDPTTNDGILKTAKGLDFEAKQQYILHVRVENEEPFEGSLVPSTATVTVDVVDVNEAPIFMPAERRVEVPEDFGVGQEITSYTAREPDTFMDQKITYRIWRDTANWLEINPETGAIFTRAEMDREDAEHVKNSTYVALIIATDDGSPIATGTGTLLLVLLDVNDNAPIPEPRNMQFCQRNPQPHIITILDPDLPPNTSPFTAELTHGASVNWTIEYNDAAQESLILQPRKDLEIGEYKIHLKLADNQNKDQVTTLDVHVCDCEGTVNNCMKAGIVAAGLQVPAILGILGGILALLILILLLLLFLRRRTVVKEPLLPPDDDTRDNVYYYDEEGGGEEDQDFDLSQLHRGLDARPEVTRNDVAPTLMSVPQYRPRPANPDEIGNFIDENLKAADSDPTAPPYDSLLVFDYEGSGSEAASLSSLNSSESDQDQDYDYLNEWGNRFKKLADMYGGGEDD

binding: binds
Substance: E-cadherin on the surface of 4T1 murine breast cancer cells (from UniProt P09803 157-884) (receptor)
